Results as given in the supplement of paper PMC8256030.
Values joined by “and” are separate entries in the source; they are usually repeats but may differ in a detail not shown here. Equal values may be shown once. Some of the results follow. Single values are uncertain here, since repeats match poorly.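 HEK293T cells were given each compound shortly before transfection with a reporter in which red mCherry is followed by the SARS-CoV-2 frameshift element and then GFP in the −1 frame, so GFP appears only after frameshifting.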

Test system: HEK293T
Assay: percent viability (nuclei count) relative to control; higher = more viable cells
Details: 10 µM; 24 h

| SMILES | percent viability |
| --- | --- |
| O=C1c2ccccc2CN2C(=O)c3ccccc3CN12 [diftalone] | 94.4% |
| Cc1cc(NC(=O)/C(C#N)=C(\O)C2CC2)ccc1C(F)(F)F [laflunimus] | 235% |
| CC(C)c1nc(CN(C)C(=O)N[C@H](C(=O)N[C@@H](Cc2ccccc2)C[C@H](O)[C@H](Cc2ccccc2)NC(=O)OCc2cncs2)C(C)C)cs1 [ritonavir] | 387% |
| COc1ccccc1O | 355% |
| NC(=O)NO [hydroxycarbamide] | 185% |
| O=C(O)[C@@H]1[C@H]2C[C@H]3c4[nH]c5ccccc5c4CCN3C[C@@H]2CC[C@@H]1O [yohimbic acid] | 200% |
| CN(C)CCO/N=C(/C=C/c1ccc(O)cc1)c1ccccc1F [eplivanserin] | 209% |
| C=C1/C(=C\C=C2/CCC[C@]3(C)[C@@H]([C@H](C)CC[C@@H](O)C(C)C)CC[C@@H]23)C[C@@H](O)C[C@@H]1O [tacalcitol] | 71.8% |
| CC[C@H](C)[C@@H]1NC(=O)[C@H](Cc2ccc(OC)cc2)NC(=O)CCCSC[C@@H](C(=O)N2CCC[C@H]2C(=O)N[C@@H](CC(C)C)C(=O)NCC(N)=O)NC(=O)[C@H](CC(N)=O)NC(=O)[C@H](CCC(N)=O)NC1=O [carbetocin] | 196% |
| CC1(C)S[C@@H]2[C@H](NC(=O)COc3ccccc3)C(=O)N2[C@H]1C(=O)O [Pencillin V] | 234% |
| CNCCC(Oc1ccc(C(F)(F)F)cc1)c1ccccc1 (stereo not given) [fluoxetine] | 382% and 297% |
| CC(=O)N1CCC(c2ccc(C(=O)N=C(N)N)cc2C(F)(F)F)CC1 | 336% |
| NC[C@H]1CC[C@H](C(=O)O)CC1 [Tranexamic acid] | 224% |
| CCC(=O)O[C@]1(C(=O)CCl)[C@@H](C)C[C@H]2[C@@H]3CCC4=CC(=O)C=C[C@]4(C)[C@@]3(F)[C@@H](O)C[C@@]21C [Temovate] | 217% |
| CC(C)OC(=O)C(C)(C)Oc1ccc(C(=O)c2ccc(Cl)cc2)cc1 [fenofibrate] | 192% and 201% |
| [N-]=[N+]=NCC(=O)N[C@H](CO)[C@H](O)c1ccc([N+](=O)[O-])cc1 [azidamfenicol] | 206% |
| CC(C)Cc1ccc(C(C)C(=O)NCCO)cc1 (stereo not given) [mabuprofen] | 297% |
| CCn1cc(C(=O)O)c(=O)c2cc(F)c(N3CCNCC3)cc21 [norfloxacin] | 342% and 126% |

| SMILES | percent viability |
| --- | --- |
| C[C@H](CCC(=O)NCCS(=O)(=O)O)[C@H]1CC[C@H]2[C@@H]3[C@H](O)C[C@@H]4C[C@H](O)CC[C@]4(C)[C@H]3C[C@H](O)[C@]12C [Taurocholic acid] | 208% |
| O=c1cc[nH]c(=S)[nH]1 | 219% |
| CCC(CC)[C@H](NC(C)=O)[C@@H]1[C@H](O)[C@@H](C(=O)O)C[C@H]1NC(=N)N [Peramivir] | 275% |
| CC[C@H]1OC(=O)[C@H](C)C(=O)[C@H](C)[C@@H](O[C@@H]2O[C@H](C)C[C@H](N(C)C)[C@H]2O)[C@](C)(OC)C[C@@H](C)C(=O)[C@H](C)[C@H]2N(CCCCn3cnc(-c4cccnc4)c3)C(=O)O[C@]12C [Telithromycin] | 342% |
| C[C@@H](O)[C@H]1C(=O)N2C(C(=O)O)=C(S[C@@H]3CN[C@H](C(=O)N(C)C)C3)[C@H](C)[C@H]12 [meropenem] | 84.4% |
| COC(=O)CCNC(=O)[C@@H]1CSC(C)N1 (stereo not given in full) [alonacic] | 224% |
| CCCc1ncc(C(=O)O)s1 [tizoprolic acid] | 105% |
| Cc1c(C(=O)NN2CCCCC2)nn(-c2ccc(Cl)cc2Cl)c1-c1ccc(Cl)cc1 [rimonabant] | 184% |
| O=C(O)CCNC(=O)c1ccc(/N=N/c2ccc(O)c(C(=O)O)c2)cc1 | 310% |
| CCCCc1ccc(C(N)=O)nc1 [bupicomide] | 135% |
| CCN(CC)Cc1cc(Nc2ccnc3cc(Cl)ccc23)ccc1O | 409% |
| O=C(O)CCCc1ccccc1 | 176% |
| CC1CCc2c(N3CCC(O)CC3)c(F)cc3c(=O)c(C(=O)O)cn1c23 (stereo not given) [nadifloxacin] | 391% and 181% |
| CN(Cc1cc(Br)cc(Br)c1N)C1CCCCC1 [bromhexine] | 286% and 172% |
| C#CCN(C)CCCOc1ccc(Cl)cc1Cl | 244% |
| O=C(Nc1cccc2c(=O)cc(-c3nnn[nH]3)oc12)c1ccc(OCCCCc2ccccc2)cc1 [Pranlukast] | 375% and 282% |
| CCCC(=O)Nc1ccc(OCC(O)CNC(C)C)c(C(C)=O)c1 (stereo not given) [acebutolol] | 167% |

Reprinted from the results shown, three compounds:

| SMILES | percent viability |
| --- | --- |
| CCCCc1ccc(C(N)=O)nc1 [bupicomide] | 135% |
| CCN(CC)Cc1cc(Nc2ccnc3cc(Cl)ccc23)ccc1O | 409% |
| O=C(O)CCCc1ccccc1 | 176% |
